# Laboratory results reported in US8969026B2, “Polymeric reverse micelles as selective extraction agents and related methods of MALDI-MS analysis” (University of Massachusetts, priority 2007, dated 2015).
# At least one compound was matched to its structure with a doubt left. No end group written: not given here.
# Test: pH-dependent biphasic extraction of a peptide mixture with inverse micelles of polymer 1 in toluene, MALDI-MS ion abundance ratio
# Format: physicochemical
# Details: polymer 1 inverse micelles in toluene, K = Iorg/Iaq, [M+H]+ signal, [M+K]+ for spinorphin and β-amyloid, at least 4 replicates
# Excerpt: The net charge within the inverse micelle of 1 is negative, affording a selective extraction of positively-charged peptides. In a typical experiment, a toluene solution containing 1 was mixed with an aqueous solution containing a mixture of peptides. After vortexing this mixture, the organic layer was separated and analyzed using MALDI-MS. […] Because the aqueous solution was buffered at a pH of 7.1, peptides with pI values above 7.1 were expected to be sequestered into the interior of the inverse micelles, while peptides with pI values below 7.1 would be mostly excluded based on Coulombic repulsion.
# The ion abundance ratio is related to the extraction capacity of the polymer, and can be defined as the ratio of the MALDI ion abundance of the peptide in the organic phase that contains the inverse micelles (Iorg) to the ion abundance of the peptide remaining in the aqueous phase (Iaq) (K=Iorg/Iaq). These experiments were performed with the hypothesis that the extraction would be based on electrostatic interaction between the polymer and the peptide. To test this premise further, two control experiments were carried out. […] Therefore, a two-phase extraction experiment was done in the absence of homopolymer 1, and no peptide extraction into the organic phase was observed. Second, peptide extractions using a polymer without the negatively-charged functionality were performed. Polymer 2 contains charge-neutral pentaethyleneglycol functionalities instead of the carboxylic acid moieties. […] These two results are consistent with the hypothesis that the extraction is based on electrostatics.
# Without limitation to any one theory or mode of operation, the pH of the overall aqueous solution is also likely to dictate the pH of the hydrated interiors of the inverse micelle where the binding takes place. Accordingly, extractions at three different pHs: 4.0, 7.1, and 9.0 were carried out; the results of these experiments are listed in Table 1. […] The results from experiments at pH 7.1 and 9.0 further support this idea. […]
sequence,measurement,setting,value
RPPGFSPFR [Bradykinin],Ion abundance ratio (K ± sM) pH 4.0,aqueous pH 4.0,680 ± 138
same,Ion abundance ratio (K ± sM) pH 7.1,aqueous pH 7.1,1162 ± 73
same,Ion abundance ratio (K ± sM) pH 9.0,aqueous pH 9.0,842 ± 151
